Drawing on PMC9581534, this text covers binding for one molecule.

The chains behind the UniProt entries cited, without tags or fusion partners. Where a name states a change or a piece, a line headed by the entry shows the natural chain unless it says otherwise. A line that says so, or that is headed by a name, gives the form on record, which may keep a tag or linker.
CD44 standard form (CD44s), endogenous in MDA-MB-231 cells (human (endogenous in MDA-MB-231)) (P16070, form named): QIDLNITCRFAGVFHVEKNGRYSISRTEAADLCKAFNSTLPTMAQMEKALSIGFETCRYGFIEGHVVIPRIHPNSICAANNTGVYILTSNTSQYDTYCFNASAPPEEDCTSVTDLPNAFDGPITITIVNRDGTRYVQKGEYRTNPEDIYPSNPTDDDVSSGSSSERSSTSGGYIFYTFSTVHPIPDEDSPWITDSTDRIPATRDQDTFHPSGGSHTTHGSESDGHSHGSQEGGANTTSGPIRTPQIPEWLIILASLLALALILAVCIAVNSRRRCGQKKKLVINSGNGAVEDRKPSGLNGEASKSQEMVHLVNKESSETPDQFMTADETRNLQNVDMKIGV

These are yes or no findings as the source states them, for the method shown. In cells and extracts the contact can be indirect. Some entries that bind do so weakly or less than the wild type.

The target of this assay is CD44 standard form (CD44s), endogenous in MDA-MB-231 cells (human (endogenous in MDA-MB-231)) (UniProt P16070). Description: co-IP; endogenous proteins; lysate precleared with Protein A/B PLUS agarose beads, 100 µg lysate incubated with CD44 antibody overnight, then beads overnight; membrane fraction of MDA-MB-231, total lysate of TN1 PDX cells; immunoblot for CD44 and CD81; CD44KO cells as control. (A western blot detects proteins with antibodies after separation by electrophoresis.)

B1: CD81, endogenous in MDA-MB-231 and TN1 PDX cells (protein, UniProt P60033 1-236)
chain: MGVEGCTKCIKYLLFVFNFVFWLAGGVILGVALWLRHDPQTTNLLYLELGDKPAPNTFYVGIYILIAVGAVMMFVGFLGCYGAIQESQCLLGTFFTCLVILFACEVAAGIWGFVNKDQIAKDVKQFYDQALQQAVVDDDANNAKAVVKTFHETLDCCGSSTLTALTTSVLKNNLCPSGSNIISNLFKEDCHQKIDDLFSGKLYLIGIAAIVVAVIMIFEMILSMVLCCGIRNSSVY
With B1, the binding entry was “binds”.
